From the supplement of paper PMC12067093, “Discovery and optimisation of a covalent ligand for TRIM25 and its application to targeted protein ubiquitination” (Chemical Science, 2025)
The other results are listed elsewhere or left out.

Amino acid sequences for entries named in this document (tags omitted). A change or cut given only in a name is not applied to a line headed by its entry.
UniProt O94964: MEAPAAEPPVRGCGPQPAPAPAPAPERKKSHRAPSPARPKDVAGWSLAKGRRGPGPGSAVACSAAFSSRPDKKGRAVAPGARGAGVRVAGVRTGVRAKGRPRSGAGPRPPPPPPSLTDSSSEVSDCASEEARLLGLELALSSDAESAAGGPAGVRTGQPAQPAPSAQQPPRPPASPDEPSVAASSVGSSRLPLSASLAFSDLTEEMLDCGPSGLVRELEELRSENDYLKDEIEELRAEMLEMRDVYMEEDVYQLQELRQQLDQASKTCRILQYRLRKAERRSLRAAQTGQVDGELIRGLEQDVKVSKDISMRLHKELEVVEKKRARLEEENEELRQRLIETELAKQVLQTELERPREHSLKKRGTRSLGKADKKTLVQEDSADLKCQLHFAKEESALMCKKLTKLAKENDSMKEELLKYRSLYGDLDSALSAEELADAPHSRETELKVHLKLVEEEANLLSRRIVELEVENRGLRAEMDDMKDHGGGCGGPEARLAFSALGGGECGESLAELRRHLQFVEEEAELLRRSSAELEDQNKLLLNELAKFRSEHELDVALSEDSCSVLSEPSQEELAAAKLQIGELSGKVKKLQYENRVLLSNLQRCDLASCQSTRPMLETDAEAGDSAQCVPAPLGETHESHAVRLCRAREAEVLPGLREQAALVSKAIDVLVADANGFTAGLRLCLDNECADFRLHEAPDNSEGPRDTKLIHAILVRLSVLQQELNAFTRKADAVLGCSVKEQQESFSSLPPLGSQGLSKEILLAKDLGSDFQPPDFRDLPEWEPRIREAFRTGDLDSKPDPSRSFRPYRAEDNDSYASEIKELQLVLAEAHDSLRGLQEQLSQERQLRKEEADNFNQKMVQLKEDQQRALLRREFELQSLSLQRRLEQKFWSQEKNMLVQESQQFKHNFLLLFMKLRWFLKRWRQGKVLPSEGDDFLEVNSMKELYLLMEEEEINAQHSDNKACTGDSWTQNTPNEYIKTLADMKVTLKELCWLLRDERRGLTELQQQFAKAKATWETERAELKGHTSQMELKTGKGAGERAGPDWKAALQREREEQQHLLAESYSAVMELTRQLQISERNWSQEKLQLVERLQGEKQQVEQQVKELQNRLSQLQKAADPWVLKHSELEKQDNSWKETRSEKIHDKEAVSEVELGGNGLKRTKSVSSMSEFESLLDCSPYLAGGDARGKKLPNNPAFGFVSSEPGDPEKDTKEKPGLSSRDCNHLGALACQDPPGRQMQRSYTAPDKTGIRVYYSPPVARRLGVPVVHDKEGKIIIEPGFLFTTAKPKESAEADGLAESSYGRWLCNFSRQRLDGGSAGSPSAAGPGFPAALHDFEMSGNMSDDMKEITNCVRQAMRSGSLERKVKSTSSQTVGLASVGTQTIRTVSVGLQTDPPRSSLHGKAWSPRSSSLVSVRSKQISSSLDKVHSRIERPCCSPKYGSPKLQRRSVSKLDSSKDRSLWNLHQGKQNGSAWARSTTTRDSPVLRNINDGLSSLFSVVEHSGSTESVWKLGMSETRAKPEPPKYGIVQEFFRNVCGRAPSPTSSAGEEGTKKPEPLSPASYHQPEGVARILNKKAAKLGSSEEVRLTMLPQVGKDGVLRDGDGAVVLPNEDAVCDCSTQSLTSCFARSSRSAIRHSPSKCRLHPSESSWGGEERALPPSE
UniProt Q9Y5X3: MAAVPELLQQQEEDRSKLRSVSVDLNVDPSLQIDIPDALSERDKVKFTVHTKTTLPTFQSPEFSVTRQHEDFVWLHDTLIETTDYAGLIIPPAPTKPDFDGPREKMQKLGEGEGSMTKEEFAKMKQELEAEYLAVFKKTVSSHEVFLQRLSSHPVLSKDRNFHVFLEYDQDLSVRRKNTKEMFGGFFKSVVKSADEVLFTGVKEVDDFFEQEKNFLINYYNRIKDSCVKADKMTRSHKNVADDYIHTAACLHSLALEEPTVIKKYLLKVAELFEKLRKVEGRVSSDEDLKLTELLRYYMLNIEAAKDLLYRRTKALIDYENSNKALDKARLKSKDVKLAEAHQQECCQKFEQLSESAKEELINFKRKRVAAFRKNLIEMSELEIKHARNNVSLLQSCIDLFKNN
UniProt Q9HB58: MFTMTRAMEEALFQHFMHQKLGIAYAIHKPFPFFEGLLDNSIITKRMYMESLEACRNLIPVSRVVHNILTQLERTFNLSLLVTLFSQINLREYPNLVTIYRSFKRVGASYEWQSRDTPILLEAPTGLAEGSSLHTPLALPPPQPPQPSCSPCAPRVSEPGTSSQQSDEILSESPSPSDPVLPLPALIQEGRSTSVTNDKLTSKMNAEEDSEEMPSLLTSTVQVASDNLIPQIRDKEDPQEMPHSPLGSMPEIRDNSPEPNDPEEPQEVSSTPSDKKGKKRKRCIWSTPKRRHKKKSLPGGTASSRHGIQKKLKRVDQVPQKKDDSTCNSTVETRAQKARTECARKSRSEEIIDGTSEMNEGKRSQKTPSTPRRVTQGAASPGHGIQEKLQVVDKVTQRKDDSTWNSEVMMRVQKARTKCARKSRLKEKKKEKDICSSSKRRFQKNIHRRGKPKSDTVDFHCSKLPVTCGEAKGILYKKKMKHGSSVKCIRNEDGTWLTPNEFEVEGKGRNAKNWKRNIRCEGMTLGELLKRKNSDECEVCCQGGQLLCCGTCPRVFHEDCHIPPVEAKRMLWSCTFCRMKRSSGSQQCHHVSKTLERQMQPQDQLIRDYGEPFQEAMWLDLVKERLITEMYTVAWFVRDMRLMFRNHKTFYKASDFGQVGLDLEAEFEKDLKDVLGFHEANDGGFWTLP
UniProt Q9Y5M8: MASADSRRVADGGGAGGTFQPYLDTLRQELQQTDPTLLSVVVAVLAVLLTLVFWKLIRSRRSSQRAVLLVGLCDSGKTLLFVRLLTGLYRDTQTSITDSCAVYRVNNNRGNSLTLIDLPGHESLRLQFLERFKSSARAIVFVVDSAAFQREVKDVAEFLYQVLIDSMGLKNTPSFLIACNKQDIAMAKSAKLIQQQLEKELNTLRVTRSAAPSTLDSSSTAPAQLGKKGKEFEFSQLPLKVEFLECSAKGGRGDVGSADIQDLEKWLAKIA
UniProt Q07617: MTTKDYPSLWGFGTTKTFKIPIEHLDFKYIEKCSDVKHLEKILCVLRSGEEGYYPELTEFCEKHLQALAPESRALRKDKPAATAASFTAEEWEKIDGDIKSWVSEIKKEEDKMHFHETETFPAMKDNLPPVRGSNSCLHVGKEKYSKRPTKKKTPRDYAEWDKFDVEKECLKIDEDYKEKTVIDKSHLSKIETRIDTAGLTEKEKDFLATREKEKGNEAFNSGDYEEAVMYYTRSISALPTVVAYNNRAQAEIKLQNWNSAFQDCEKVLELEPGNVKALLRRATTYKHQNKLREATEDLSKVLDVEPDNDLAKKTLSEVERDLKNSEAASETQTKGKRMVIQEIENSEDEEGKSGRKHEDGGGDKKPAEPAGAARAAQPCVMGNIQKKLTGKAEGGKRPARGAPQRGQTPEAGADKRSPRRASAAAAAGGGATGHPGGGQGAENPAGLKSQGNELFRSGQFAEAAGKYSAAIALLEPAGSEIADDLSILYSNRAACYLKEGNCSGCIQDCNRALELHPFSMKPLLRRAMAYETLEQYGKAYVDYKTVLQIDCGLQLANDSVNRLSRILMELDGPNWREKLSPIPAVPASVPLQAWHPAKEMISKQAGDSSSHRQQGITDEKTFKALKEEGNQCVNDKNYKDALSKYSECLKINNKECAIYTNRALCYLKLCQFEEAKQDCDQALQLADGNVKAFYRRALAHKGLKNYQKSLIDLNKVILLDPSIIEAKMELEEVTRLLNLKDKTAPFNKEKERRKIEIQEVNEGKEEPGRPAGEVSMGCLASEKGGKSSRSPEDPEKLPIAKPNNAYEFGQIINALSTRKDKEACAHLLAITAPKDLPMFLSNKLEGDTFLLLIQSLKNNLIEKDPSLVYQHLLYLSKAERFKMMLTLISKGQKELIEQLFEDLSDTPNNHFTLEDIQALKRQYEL
UniProt Q8TCT8: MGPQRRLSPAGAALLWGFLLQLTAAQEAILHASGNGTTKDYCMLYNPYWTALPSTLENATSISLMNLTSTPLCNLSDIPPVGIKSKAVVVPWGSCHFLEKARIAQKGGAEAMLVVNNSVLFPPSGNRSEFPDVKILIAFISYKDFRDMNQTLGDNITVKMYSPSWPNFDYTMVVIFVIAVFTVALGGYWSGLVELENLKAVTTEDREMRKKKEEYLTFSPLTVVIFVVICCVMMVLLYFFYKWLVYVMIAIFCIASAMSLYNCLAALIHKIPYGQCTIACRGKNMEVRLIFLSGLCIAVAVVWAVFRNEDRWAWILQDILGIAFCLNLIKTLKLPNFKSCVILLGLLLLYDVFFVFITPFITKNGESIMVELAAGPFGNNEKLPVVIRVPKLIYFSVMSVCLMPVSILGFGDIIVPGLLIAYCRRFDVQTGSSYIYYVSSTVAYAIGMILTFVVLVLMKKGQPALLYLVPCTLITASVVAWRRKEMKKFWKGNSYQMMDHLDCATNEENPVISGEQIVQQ
UniProt O15270: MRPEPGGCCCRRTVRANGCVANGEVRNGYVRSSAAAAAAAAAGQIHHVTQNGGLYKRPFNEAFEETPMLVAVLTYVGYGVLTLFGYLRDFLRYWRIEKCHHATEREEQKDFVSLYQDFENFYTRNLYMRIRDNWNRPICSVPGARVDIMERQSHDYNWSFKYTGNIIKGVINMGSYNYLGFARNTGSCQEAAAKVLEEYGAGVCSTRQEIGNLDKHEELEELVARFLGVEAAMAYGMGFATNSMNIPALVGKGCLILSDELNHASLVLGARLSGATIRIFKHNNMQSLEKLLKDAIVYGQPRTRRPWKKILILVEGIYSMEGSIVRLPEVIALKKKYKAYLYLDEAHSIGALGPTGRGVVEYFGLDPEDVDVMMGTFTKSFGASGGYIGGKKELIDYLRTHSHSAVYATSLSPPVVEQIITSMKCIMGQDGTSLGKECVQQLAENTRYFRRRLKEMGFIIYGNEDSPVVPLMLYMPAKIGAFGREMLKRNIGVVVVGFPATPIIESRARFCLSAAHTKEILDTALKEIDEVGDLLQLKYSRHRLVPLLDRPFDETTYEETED
UniProt Q00796: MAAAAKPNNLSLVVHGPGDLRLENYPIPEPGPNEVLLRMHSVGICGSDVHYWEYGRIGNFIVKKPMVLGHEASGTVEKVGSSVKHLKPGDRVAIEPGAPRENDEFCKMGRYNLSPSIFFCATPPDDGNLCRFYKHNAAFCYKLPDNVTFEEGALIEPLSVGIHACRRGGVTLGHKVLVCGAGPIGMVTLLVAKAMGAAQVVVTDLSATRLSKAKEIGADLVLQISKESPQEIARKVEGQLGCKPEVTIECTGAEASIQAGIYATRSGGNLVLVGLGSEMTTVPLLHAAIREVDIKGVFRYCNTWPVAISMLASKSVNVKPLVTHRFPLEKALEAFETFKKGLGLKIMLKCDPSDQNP
UniProt Q9Y5W7: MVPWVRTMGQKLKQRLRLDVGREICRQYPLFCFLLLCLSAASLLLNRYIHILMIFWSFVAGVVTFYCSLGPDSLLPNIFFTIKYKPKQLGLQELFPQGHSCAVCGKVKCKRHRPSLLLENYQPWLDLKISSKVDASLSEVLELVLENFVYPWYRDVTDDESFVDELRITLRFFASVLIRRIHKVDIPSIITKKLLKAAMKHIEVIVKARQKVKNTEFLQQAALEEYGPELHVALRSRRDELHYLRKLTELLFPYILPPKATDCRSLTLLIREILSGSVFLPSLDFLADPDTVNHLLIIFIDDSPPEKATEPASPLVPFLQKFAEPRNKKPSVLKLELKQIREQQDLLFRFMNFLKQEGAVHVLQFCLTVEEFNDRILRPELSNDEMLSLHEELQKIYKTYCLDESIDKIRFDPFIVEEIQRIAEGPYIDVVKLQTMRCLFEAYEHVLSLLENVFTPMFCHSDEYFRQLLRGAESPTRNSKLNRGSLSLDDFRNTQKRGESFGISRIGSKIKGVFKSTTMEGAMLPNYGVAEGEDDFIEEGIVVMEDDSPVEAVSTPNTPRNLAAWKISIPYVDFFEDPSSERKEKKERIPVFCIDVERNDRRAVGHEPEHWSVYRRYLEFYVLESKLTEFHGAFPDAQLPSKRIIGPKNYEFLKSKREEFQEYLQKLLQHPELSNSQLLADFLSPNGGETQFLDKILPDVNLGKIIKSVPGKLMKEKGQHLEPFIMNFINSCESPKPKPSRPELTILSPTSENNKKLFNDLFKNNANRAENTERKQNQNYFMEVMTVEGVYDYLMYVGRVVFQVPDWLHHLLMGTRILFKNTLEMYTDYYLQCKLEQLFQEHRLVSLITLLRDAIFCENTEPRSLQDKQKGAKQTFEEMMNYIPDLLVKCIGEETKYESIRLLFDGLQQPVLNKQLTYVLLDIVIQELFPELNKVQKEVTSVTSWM
UniProt P30626: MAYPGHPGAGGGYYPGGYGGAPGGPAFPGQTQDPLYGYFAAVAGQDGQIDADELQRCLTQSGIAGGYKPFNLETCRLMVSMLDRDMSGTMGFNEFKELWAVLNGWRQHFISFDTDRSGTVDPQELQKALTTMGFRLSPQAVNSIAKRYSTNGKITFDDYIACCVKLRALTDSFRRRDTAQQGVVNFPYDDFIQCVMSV

Compound: Cc1cc(ccc1-c1ccccc1)C(=O)N1CCCN(CC1)C(=O)CCl [compound 10]
Assay: probe-labelled cysteine peptide fold change vs DMSO (competition) (log2 fold change); higher = less target engagement (more negative = stronger competition)
Conditions: 10 µM; THP-1; incubation time: 4 h
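Further: competitive profiling in live THP-1 cells: cysteine peptides tagged with an iodoacetamide desthiobiotin (IA-DTB) probe, intensity after compound treatment relative to DMSO-treated cells.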

In order of rising “probe-labelled cysteine peptide fold change” value:
1. SPTLC1_O15269_133_KYGVGTCGPR (UniProt O15269)  -0.399
2. SORBS3_O60504_521_LCDDGPQLPTSPR (UniProt O60504)  -0.236
3. SOGA1_O94964_499_KADAVLGCSVK (UniProt O94964)  -0.215
4. SPTLC1_O15269_255_FIVVEGLYMNTGTICPLPELVK (UniProt O15269)  -0.208
5. SP3_Q02447_628_KQHICHIPGCGK (UniProt Q02447)  -0.201
6. SNX5_Q9Y5X3_346+347_LAEAHQQECCQK (UniProt Q9Y5X3)  -0.2
7. SNTB1_Q13884_515_DGEIQLDLHSCPKPIVFIIHSFLSAK (UniProt Q13884)  -0.183
8. SPTLC1_O15269_100_ECINFASFNFLGLLDNPR (UniProt O15269)  -0.181
9. SRC_P12931_248_LTTVCPTSKPQTQGLAK (UniProt P12931)  -0.161
10. SNTB1_Q13884_515_DGEIQLDLHSCPK (UniProt Q13884)  -0.136
11. SPEN_Q96T58_1238_MDHVDFDICTK (UniProt Q96T58)  -0.128
12. SQOR_Q9Y6N5_379_KYDGYTSCPLVTGYNR (UniProt Q9Y6N5)  -0.116
13. SNX3_O60493_140_CLHMFLQDEIIDKSYTPSKIRHA (UniProt O60493)  -0.108
14. SP110_Q9HB58_327_DDSTCNSTVETR (UniProt Q9HB58)  -0.102
15. SRPRB_Q9Y5M8_100_DTQTSITDSCAVYR (UniProt Q9Y5M8)  -0.0956
16. SNX29_Q8TEQ0_121_CALNEHSLER (UniProt Q8TEQ0)  -0.082
17. SP4_Q02446_625_VACSCPNCR (UniProt Q02446)  -0.071
18. SOD1_P00441_112_DGVADVSIEDSVISLSGDHCIIGR (UniProt P00441)  -0.0707
19. SPAG1_Q07617_633_EEGNQCVNDK (UniProt Q07617)  -0.0703
20. SPPL2A_Q8TCT8_95_AVVVPWGSCHFLEK (UniProt Q8TCT8)  -0.069
21. SPART_Q8N0X7_504_VSQFLVDGVCTVANCVGK (UniProt Q8N0X7)  -0.0452
22. SRP19_P09132_3_ACAAAR (UniProt P09132)  -0.0368
23. SPTLC2_O15270_438_ECVQQLAENTR (UniProt O15270)  -0.0228
24. SQSTM1_Q13501_113_RDHRPPCAQEAPR (UniProt Q13501)  -0.0103
25. SPTLC2_O15270_511_FCLSAAHTK (UniProt O15270)  0.0111
26. SRCAP_Q6ZRS2_2372_EEVFRLPQEEEEGPGAGDESSCGTGGGTHR (UniProt Q6ZRS2)  0.02
27. SNX27_Q96L92_432_TCEGYNEIIFPHCACDSR (UniProt Q96L92)  0.0233
28. SPTBN1_Q01082_1900_SLLDACESRR (UniProt Q01082)  0.0337
29. SORD_Q00796_130_YNLSPSIFFCATPPDDGNLCR (UniProt Q00796)  0.0585
30. SRM_P19623_205+209_EDGVLCCQGECQWLHLDLIK (UniProt P19623)  0.0892
31. SPTBN1_Q01082_1389_AELFTQSCADLDK (UniProt Q01082)  0.0919
32. SNX9_Q9Y5X1_502_GFLGCFPDIIGTHK (UniProt Q9Y5X1)  0.124
33. SNX14_Q9Y5W7_593_ERIPVFCIDVER (UniProt Q9Y5W7)  0.129
34. SORBS3_O60504_482_KGEHICLIR (UniProt O60504)  0.166
35. SRM_P19623_123_HPSVESVVQCEIDEDVIQVSK (UniProt P19623)  0.179
36. SNUPN_O95149_199_GHPFYDCQTDFR (UniProt O95149)  0.193
37. SRM_P19623_71_TYGNVLVLDGVIQCTERDEFSYQEMIANLPLCSHPNPR (UniProt P19623)  0.225
38. SRI_P30626_194_RDTAQQGVVNFPYDDFIQCVMSV (UniProt P30626)  0.258
39. SRI_P30626_57+75_CLTQSGIAGGYKPFNLETCR (UniProt P30626)  0.277
40. SRP19_P09132_94_QEDGSLCLVQFPSR (UniProt P09132)  0.368

Same assay, conditions: 50 µM; THP-1; incubation time: 4 h

In order of falling “probe-labelled cysteine peptide fold change” value:
1. SNTB1_Q13884_515_DGEIQLDLHSCPK (UniProt Q13884)  1
2. SRP19_P09132_94_QEDGSLCLVQFPSR (UniProt P09132)  0.591
3. SORD_Q00796_130_YNLSPSIFFCATPPDDGNLCR (UniProt Q00796)  0.371
4. SRPRB_Q9Y5M8_100_DTQTSITDSCAVYR (UniProt Q9Y5M8)  0.338
5. SNTB1_Q13884_515_DGEIQLDLHSCPKPIVFIIHSFLSAK (UniProt Q13884)  0.331
6. SRM_P19623_71_TYGNVLVLDGVIQCTERDEFSYQEMIANLPLCSHPNPR (UniProt P19623)  0.323
7. SRI_P30626_194_RDTAQQGVVNFPYDDFIQCVMSV (UniProt P30626)  0.269
8. SNX14_Q9Y5W7_593_ERIPVFCIDVER (UniProt Q9Y5W7)  0.205
9. SRM_P19623_123_HPSVESVVQCEIDEDVIQVSK (UniProt P19623)  0.148
10. SRCAP_Q6ZRS2_2372_EEVFRLPQEEEEGPGAGDESSCGTGGGTHR (UniProt Q6ZRS2)  0.131
11. SPTLC2_O15270_438_ECVQQLAENTR (UniProt O15270)  0.123
12. SNX27_Q96L92_432_TCEGYNEIIFPHCACDSR (UniProt Q96L92)  0.111
13. SRP19_P09132_3_ACAAAR (UniProt P09132)  0.0842
14. SNX9_Q9Y5X1_502_GFLGCFPDIIGTHK (UniProt Q9Y5X1)  0.0742
15. SPTLC2_O15270_511_FCLSAAHTK (UniProt O15270)  0.0538
16. SPTLC1_O15269_255_FIVVEGLYMNTGTICPLPELVK (UniProt O15269)  0.00555
17. SPTLC1_O15269_100_ECINFASFNFLGLLDNPR (UniProt O15269)  -0.00276
18. SORBS3_O60504_521_LCDDGPQLPTSPR (UniProt O60504)  -0.00591
19. SRM_P19623_205+209_EDGVLCCQGECQWLHLDLIK (UniProt P19623)  -0.00622
20. SOD1_P00441_112_DGVADVSIEDSVISLSGDHCIIGR (UniProt P00441)  -0.0212
21. SNUPN_O95149_199_GHPFYDCQTDFR (UniProt O95149)  -0.0261
22. SP110_Q9HB58_327_DDSTCNSTVETR (UniProt Q9HB58)  -0.0392
23. SPPL2A_Q8TCT8_95_AVVVPWGSCHFLEK (UniProt Q8TCT8)  -0.0495
24. SNX29_Q8TEQ0_121_CALNEHSLER (UniProt Q8TEQ0)  -0.0504
25. SP4_Q02446_625_VACSCPNCR (UniProt Q02446)  -0.0712
26. SQOR_Q9Y6N5_379_KYDGYTSCPLVTGYNR (UniProt Q9Y6N5)  -0.0993
27. SRI_P30626_57+75_CLTQSGIAGGYKPFNLETCR (UniProt P30626)  -0.139
28. SPTBN1_Q01082_1900_SLLDACESRR (UniProt Q01082)  -0.154
29. SPTBN1_Q01082_1389_AELFTQSCADLDK (UniProt Q01082)  -0.194
30. SNX3_O60493_140_CLHMFLQDEIIDKSYTPSKIRHA (UniProt O60493)  -0.219
31. SORBS3_O60504_482_KGEHICLIR (UniProt O60504)  -0.34
32. SRC_P12931_248_LTTVCPTSKPQTQGLAK (UniProt P12931)  -0.356
33. SOGA1_O94964_499_KADAVLGCSVK (UniProt O94964)  -0.378
34. SPTLC1_O15269_133_KYGVGTCGPR (UniProt O15269)  -0.44
35. SPAG1_Q07617_633_EEGNQCVNDK (UniProt Q07617)  -0.479
36. SPEN_Q96T58_1238_MDHVDFDICTK (UniProt Q96T58)  -0.532
37. SQSTM1_Q13501_113_RDHRPPCAQEAPR (UniProt Q13501)  -0.579
38. SP3_Q02447_628_KQHICHIPGCGK (UniProt Q02447)  -0.623
39. SPART_Q8N0X7_504_VSQFLVDGVCTVANCVGK (UniProt Q8N0X7)  -0.831
40. SNX5_Q9Y5X3_346+347_LAEAHQQECCQK (UniProt Q9Y5X3)  -0.99
